# Laboratory results from PubChem BioAssay AID504467 (National Center for Advancing Translational Sciences (NCATS), 2011).
# Out of some 330,000 compounds screened, about 7,700 (2.3%) were called active. This list was built around the results that the source calls inconclusive (neither active nor inactive); the mix of calls is not that of the screen. Calls follow the shape of the dose curve; as a rule, active = well fitted inhibition curve with a large enough effect; inconclusive = small, poorly fitted or top-dose-only effect, or effect the other way; inactive = flat fitted curve, though single readings scatter. Potencies of inconclusive entries are doubtful fits and often do not repeat.
# Assay: qHTS screen for small molecules that inhibit ELG1-dependent DNA repair in human embryonic kidney (HEK293T) cells expressing luciferase-tagged ELG1; also: nearly all actives have a fitted effect of over 55% in size
# Details: HEK293T ELG1-luciferase reporter, luminescence, 16 h, DNA damage induced by 5-fluorouridine; series mostly up to 46.1 µM
# In short: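 In this reporter screen, reduction of luminescence relative to DMSO vehicle indicated activity. Compounds and 5-fluorouridine were added together to 2,000 cells per well, incubated for 16 hr at 37 °C, then developed with ONE-Glo.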
# Potency is read from the fitted curve at half-maximal effect.
row,SMILES,Potency
1,NC(=O)Cc1nc(-c2ccc(Br)cc2)cs1,"inconclusive: 20.6 µM [activator, partial curve]"
2,COCC1CCN(C(=O)c2oc3c(F)cccc3c2C)C1 (centres undefined),"inconclusive: 9.2 µM [activator, partial curve]"
3,CCN(Cc1ccc(OC)c(F)c1)C(C)C(=O)Nc1ccc(S(=O)(=O)N2CCCC2)cc1 (centres undefined),"inconclusive: 25.9 µM [inhibitor, single point]"
4,S=C(NCCc1ccc(Cl)cc1)NCc1ccccc1,inactive
5,CCc1cc(=O)n2[nH]c(-c3ccccc3)c(-c3ccccc3)c2n1,"inconclusive: 20.6 µM [inhibitor, single point]"
6,O=C(CSc1nc(-c2cccs2)cc(C(F)(F)F)n1)Nc1cc(OCC(F)(F)F)cc([N+](=O)[O-])c1,"inconclusive: 25.9 µM [inhibitor, single point]"
7,O=C(NCCc1ccc2c(c1)OCCO2)c1ccccn1,"inconclusive: 9.2 µM [activator, partial curve]"
8,C=CCn1c(SCC#N)nc2c(c1=O)C(C)(C)Cc1ccccc1-2,"inconclusive: 18.4 µM [inhibitor, single point]"
9,COc1ccc(-c2noc(CCC(=O)NCCc3ccccc3)n2)cc1,"inconclusive: 1.16 µM [activator, single point]"
10,Cc1cc(-c2nnc(CCC(=O)NC(C)c3cccc4ccccc34)o2)no1 (centres undefined),inactive
11,C=CCNC(=O)CCc1nnc(C2(c3ccc(Cl)cc3)CCC2)o1,"inconclusive: 20.6 µM [activator, partial curve]"
12,CN1CCN(S(=O)(=O)c2ccc(NC(=O)COc3ccccc3Cl)cc2)CC1,inactive
13,COc1cc2ccccc2cc1C(=O)Nc1nnc(-c2ccncc2)o1,inactive
14,O=C(NCc1cccnc1)c1ccc(COc2ccccc2Cl)cc1,"inconclusive: 29.1 µM [inhibitor, single point]"
15,COc1ccc(OC)c(NC(=O)NCCN2CCN(c3ccccc3)CC2)c1,"inconclusive: 29.1 µM [inhibitor, single point]"
16,c1ccc(-c2ccccc2OCCCN2CCCC2)cc1,inactive
17,CC(C)c1ccc(C2CC(=O)c3cnc(NC(=O)c4ccco4)nc3C2)cc1 (centres undefined),"inconclusive: 29.1 µM [activator, single point]"
18,COc1cc(C(CC(=O)N2CCCC2)c2c(OC)cc(OC)c3c(-c4ccccc4)cc(=O)oc23)cc(OC)c1OC (centres undefined),inactive
19,Cc1ccc(CNc2oc(-c3ccco3)nc2S(=O)(=O)c2ccccc2)cc1,"inconclusive: 29.1 µM [inhibitor, single point]"
20,CCCCn1c(SCc2nc(N)nc(Nc3ccccc3C)n2)nc2ccccc2c1=O,"inconclusive: 29.1 µM [inhibitor, single point]"
21,CCC(=O)N1CCN(c2ccc(NC(=O)c3ccc4c(c3)OCO4)cc2)CC1,"inconclusive: 32.6 µM [inhibitor, single point]"
22,COc1ccc(NC(=O)C2=CC(c3cccs3)=NS(=O)(=O)N2C)cc1,inactive
23,CCOC(=O)c1c(NC(=O)CS(=O)(=O)c2cn(CC)c3ccccc23)sc2c1CCCC2,inactive

# Some of these compounds in order of SMILES length, largest number first:
row,SMILES,Potency
3,CCN(Cc1ccc(OC)c(F)c1)C(C)C(=O)Nc1ccc(S(=O)(=O)N2CCCC2)cc1 (centres undefined),"inconclusive: 25.9 µM [inhibitor, single point]"
10,Cc1cc(-c2nnc(CCC(=O)NC(C)c3cccc4ccccc34)o2)no1 (centres undefined),inactive
2,COCC1CCN(C(=O)c2oc3c(F)cccc3c2C)C1 (centres undefined),"inconclusive: 9.2 µM [activator, partial curve]"

# Continued:

row,SMILES,Potency
1,CCCn1c(SCC(=O)c2ccc(OC)c(OC)c2)nc2c1c(=O)n(C)c(=O)n2C,"inconclusive: 1.84 µM [inhibitor, partial curve, poor fit]"
2,COc1ccc2cc(/C(C)=N/NC(=S)Nc3cc(S(=O)(=O)N4CCOCC4)ccc3N3CCOCC3)ccc2c1,active: 4.61 µM
3,O=C1CN(C(=O)c2ccc(Cl)c([N+](=O)[O-])c2)c2ccccc2N1,inactive
4,O=C(O)CCCCc1nc2ccccc2s1,"inconclusive: 23.1 µM [activator, partial curve]"
5,CN1C(=O)/C(=N\OC(=O)c2ccccc2Cl)c2ccccc21,inactive
6,CC(=O)c1sc(NC(=O)c2cnc(Cl)c(Cl)c2)nc1C,"inconclusive: 14.6 µM [activator, partial curve]"
7,O=[N+]([O-])c1ccc2nc(-c3ccc(Cl)cc3)[nH]c2c1,"inconclusive: 1.3 µM [activator, partial curve]"
8,CC12CCC(C(=O)NCc3ccccc3Cl)(C(Br)C1=O)C2(C)C (centres undefined),"inconclusive: 23.1 µM [activator, single point]"
9,Cc1ccc(C(=O)O)cc1NC(=O)c1ccc(Cn2nc(C)c(Cl)c2C)o1,inactive
10,Cc1ccc(C)c(NC(=O)C(c2ccccc2)N2CCN(CC(=O)NC3CC3)CC2)c1 (centres undefined),"inconclusive: 18.3 µM [activator, single point]"
11,C/C=C/c1ccc(OCC(=O)Nc2cc(OC)c(OC)c(OC)c2)c(OC)c1,active: 14.6 µM
12,CN(CC(=O)NC1(C)CCS(=O)(=O)C1)S(=O)(=O)c1ccc(Cl)cc1 (centres undefined),"inconclusive: 18.3 µM [activator, partial curve, poor fit]"
13,CC(C)(C)c1ccc(Oc2ccc(N)cc2)cc1,active: 7.31 µM
14,COc1cccc(Cn2cccc(NC(=O)NCc3ccccc3)c2=O)c1,inactive
15,Cc1c(/C=N/NC(=O)c2ccc(Br)o2)cnn1C,"inconclusive: 8.2 µM [activator, partial curve, poor fit]"
16,Cc1cc(NC(=O)COc2ccccc2)n(-c2ccccc2)n1,active: 16.4 µM
17,COc1cc(CNc2ccc(N3CCN(C(C)=O)CC3)cc2)ccc1OCc1ccccc1,inactive
18,O=C(NCCc1ccccc1)C1CCN(S(=O)(=O)c2ccc(-c3nn[nH]n3)cc2)CC1,inactive
19,CCCS(=O)(=O)N1CCN=C1SCc1cccc(C)c1,"inconclusive: 23.1 µM [inhibitor, partial curve, poor fit]"
20,NC(=O)CC(NC(=O)c1cccc(Br)c1)c1ccc(NC2CCCCCCCCCCC2)c([N+](=O)[O-])c1 (centres undefined),inactive
21,CCCCc1cc(=O)oc2cc(OC(C)C(=O)NCC3CCC(C(=O)O)CC3)c(Cl)cc12 (centres undefined),inactive
22,CCOc1ccc2nc(SCC(=O)Nc3cc4c(cc3C(C)=O)OCO4)[nH]c2c1,"inconclusive: 18.4 µM [inhibitor, single point]"
23,CC(C)(C)Nc1nc(-c2ccccn2)nc2ccccc12,"inconclusive: 5.8 µM [inhibitor, single point]"

row,SMILES,Potency
1,CC(=O)c1ccc(NC(=O)C(C)Oc2ccc(N(C)S(=O)(=O)c3ccc(C)cc3)cc2)cc1 (centres undefined),"inconclusive: 23.1 µM [inhibitor, partial curve]"
2,COc1cccc(Nc2ccc([N+](=O)[O-])c3nonc23)c1,"inconclusive: 7.3 µM [inhibitor, partial curve, poor fit]"
3,Cn1nc(C(=O)Nc2cccc(C(F)(F)F)c2)c2ccccc2c1=O,"inconclusive: 23.1 µM [inhibitor, single point]"
4,CCOc1ccc(-n2cc(C(=O)NC(C)C)c3cc(OC)c(OC)cc3c2=O)cc1,"inconclusive: 23.1 µM [inhibitor, single point]"
5,CC1=NN(c2ccc(C(=O)O)cc2)C(=O)/C1=C\c1ccc(OC(=O)c2cccs2)cc1,inactive
6,COc1ccc(NC(=S)N2CCN(Cc3ccc(C)cc3)CC2)cc1,"inconclusive: 18.3 µM [inhibitor, single point]"
7,O=Cc1c(-[n+]2ccccc2)nc([O-])n1-c1ccccc1,inactive
8,O=C(CC1Sc2ncnn2C1=O)Nc1ccc(Br)cc1 (centres undefined),inactive
9,Cc1ccc(OCC(=O)Nc2ccc(C)c(F)c2)c([N+](=O)[O-])n1,"inconclusive: 11.6 µM [activator, partial curve]"
10,Cc1ccc(Nc2c([N+](=O)[O-])cc(C(=O)N3CC(=O)Nc4ccccc43)cc2[N+](=O)[O-])c(C)c1,"inconclusive: 29.1 µM [inhibitor, single point]"
11,Cc1ccc(C)c(C(=O)CN2C(=O)c3ccccc3C2=O)c1,"inconclusive: 32.6 µM [activator, single point]"
12,O=C(Cc1c[nH]c2ccccc12)NCc1ccc(Cl)cc1Cl,"inconclusive: 18.4 µM [activator, single point]"
13,Oc1ccc(C[C@@H]2CNCCN2CC2CCCCC2)cc1,inactive
14,CC(NC(=O)C1CCN(S(=O)(=O)N2CCCCCC2)CC1)c1ccccc1 (centres undefined),"inconclusive: 20.6 µM [inhibitor, partial curve, poor fit]"
15,CCN1N=C(C)C=C(c2ccccc2)n2c1nc1ccccc12,"inconclusive: 25.9 µM [activator, single point]"
16,CC(C(=O)Nc1ccc2c(c1)OCO2)n1cnc2c1c(=O)n(C)c(=O)n2C (centres undefined),inactive
17,Cc1oc(-c2ccc(Cl)cc2)nc1CN1CCC(C(=O)NCc2cccs2)CC1,"inconclusive: 32.6 µM [inhibitor, single point]"
18,Cc1cccc(COc2ccc(/C=N/NC(=O)c3nnn(-c4nonc4N)c3CN3CCCCC3)cc2)c1,"inconclusive: 14.6 µM [activator, partial curve]"
19,CC(C)c1nnc(NC(=O)COc2ccc3c(c2)OCO3)s1,inactive
20,COc1ccc(C2=CC3=C(Br)C(=O)C(C)(OC(=O)c4ccco4)C(=O)C3=CO2)cc1 (centres undefined),"inconclusive: 29.1 µM [activator, partial curve, poor fit]"
21,Cc1ccc(Nc2nc(N)nc(CSc3nncn3C)n2)cc1,"inconclusive: 18.4 µM [activator, partial curve]"
22,COc1ccc(OC)c(S(=O)(=O)N2CCC(C(=O)Nc3cccc(C(F)(F)F)c3)CC2)c1,"inconclusive: 29.1 µM [inhibitor, single point]"
23,CN(C)CCCN(C(=O)c1cc2ccccc2oc1=O)c1nc2c(F)cccc2s1,"inconclusive: 23.1 µM [activator, partial curve, poor fit]"
